PubChem BioAssay AID720505, Drosophila RNAi Screening Center, 2013
Screen: 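Genes needed for store-operated calcium entry in fly cells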 (primary screen). System: Drosophila S2R+ cells. Knock-down reagent: long dsRNA against Drosophila genes. Challenge: thapsigargin (2 µM) in calcium-free buffer to empty internal stores, then 2 mM calcium added back. Measurement: 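Fluo-4 signal in 384-well plates read on a FLIPR after thapsigargin (2 µM, calcium-free) store depletion and 2 mM calcium add-back; unnormalised mean endpoint per well; screen run twice, selected wells retested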. Scale: calcium signal and retest calcium signal: higher = more calcium entry after store depletion. Call rule: 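Knock-downs counted as hits when calcium entry dropped relative to STIM1 positive and Rho1 negative controls present on each plate; roughly 1500 genes called, with reductions of differing size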. Calls: active = called as lowering calcium entry; inactive = not called.
The screen tested about 20,000 reagents; this is a random part of those with a known target gene and a result. In the full data, about 2,100 (10%) were called active. 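Raw plate signals without normalisation; calls rest on control-based scores that were not deposited; replicate 2 separates called from uncalled poorly.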 Reagents against one gene are numbered here. A plus sign joins genes that one reagent is predicted to hit. No sequences are given here. The record does not give: the amount of reagent, the time to read-out.

Gene	reagent no.	calcium signal, replicate 1	calcium signal, replicate 2	retest calcium signal, replicate 1	retest calcium signal, replicate 2	outcome
LysD + LysB + LysC (retired record)	1	70.8	193			active
eEF1delta (eukaryotic translation elongation factor 1 delta)	1	84.6	99.7			inactive
CAH3 (Carbonic anhydrase 3)	1	265	90.7			inactive
CG42245 + MEP-1	1	46.9	115			active
CG42245 + MEP-1	2	131	87.2			inactive
d4	1	144	98.6			inactive
d4	2	89	115			inactive
CG34015	1	86.5	121			inactive
noi (noisette)	1	42.4	60.2			active
CG15403	1	111	90.3			inactive
w-cup (world cup)	1	160	162			inactive
Taf12 (TBP-associated factor 12)	1	140	112			inactive
Fkbp39 (FK506-binding protein 39kD)	1	123	133			inactive
Etfb (Electron transfer flavoprotein beta subunit)	1	93.8	122			inactive
Egfrap (EGFR adaptor protein)	1	82.8	75.2			inactive
Egfrap (EGFR adaptor protein)	2	77.4	75.6			inactive
CG9920	1	126	131			inactive
RhoGAP5A (Rho GTPase activating protein at 5A)	1	154	93			inactive
SmE (Small ribonucleoprotein particle protein SmE)	1	86.5	99.6			inactive
CG13898	1	81.1	108			inactive
pcx (pecanex)	1	88	90.1			inactive
pcx (pecanex)	2	97.7	109			inactive
pcx (pecanex)	3	73.1	76.4			inactive
pcx (pecanex)	4	61.6	97.9			active
pcx (pecanex)	5	54.1	86.5			active
pcx (pecanex)	6	111	115			inactive
CG1463	1	87.1	116			inactive
CG30414	1	104	166			inactive
CG34251	1					active
CG3328	1	171	97.9			inactive
Naa80 (N(alpha)-acetyltransferase 80)	1	124	121			inactive
Pa1 (PTIP associated 1)	1	106	91.7			inactive
Ugt303B2 (UDP-glycosyltransferase family 303 member B2)	1	218	162			inactive
Ugt303B2 (UDP-glycosyltransferase family 303 member B2)	2	76.8	78.2			inactive
PGRP-LD + Pmi	1	59	118			active
PGRP-LD + Pmi	2	117	83.3	81.4	113	inactive
CG32448	1	58.8	94.3			active
Bgb	1	159	114			inactive
Mal-A3 (Maltase A3)	1	154	179			inactive
Adi1 (Acireductone dioxygenase 1)	1	96.9	84.2			inactive
Adi1 (Acireductone dioxygenase 1)	2	129	97.6			inactive
CG5157	1	101	231			inactive
Gclm (Glutamate-cysteine ligase modifier subunit)	1	216	296			inactive
RNASEK (Ribonuclease kappa)	1	80.9	79			active
Mayo	1	137	154			inactive
fwd (four wheel drive)	1	73.2	130			active
CG7342	1	108	164			inactive
CG12229	1	114	187			inactive
mbt (mushroom bodies tiny)	1	116	129			inactive
mbt (mushroom bodies tiny)	2	118	156			inactive
Pi4KIIIalpha (Phosphatidylinositol 4-kinase III alpha)	1	84.2	127			inactive
CG9705	1	134	99.5			inactive
grnd (grindelwald)	1	95.4	82.1			inactive
GNBP3 (Gram-negative bacteria binding protein 3)	1	93.5	82.2			inactive
CG43183	1	99.7	130			inactive
CG42237	1	72.1	110			active
dob (doppelganger von brummer)	1	153	108			inactive
CG31275	1	127	78.2			inactive
Ugt35B1 (UDP-glycosyltransferase family 35 member B1)	1	107	142			inactive
SLO2 (slowpoke 2)	1	87.8	137			inactive
SLO2 (slowpoke 2)	2	132	145			inactive
SLO2 (slowpoke 2)	3	106	130			inactive
SLO2 (slowpoke 2)	4	112	151			inactive
SLO2 (slowpoke 2)	5	108	142			inactive
SLO2 (slowpoke 2)	6	82.1	133			inactive
CG15128	1	209	173			inactive
Syx6 (Syntaxin 6)	1	128	138			inactive
CG12883	1	75.7	106			inactive
Trp1 (Translocation protein 1)	1	66.7	79.1			active
CG17266	1	147	129			inactive
CG17266	2	80.4	220			inactive
Rabex-5 (Rabaptin-5-associated exchange factor for Rab5)	1	125	97			inactive
TfIIA-S-2	1	101	127			inactive
CG34331	1	68.7	186			active
rdog (red dog mine)	1	86	124			inactive
Gr22a (Gustatory receptor 22a)	1	71.4	184			inactive
Zip102B (Zinc/iron regulated transporter-related protein 102B)	1	104	130	101	82.8	inactive
vnd (ventral nervous system defective)	1	88.3	103	9000	135	inactive
vnd (ventral nervous system defective)	2	94.2	195			inactive
CG32986	1	112	88.1			inactive
CG15202	1	122	85.4			inactive
CG1632	1	201	101			inactive
Agpat1 (1-Acylglycerol-3-phosphate O-acyltransferase 1)	1	98.8	104			inactive
Agpat1 (1-Acylglycerol-3-phosphate O-acyltransferase 1)	2	75.9	110			inactive
pip (pipe)	1	85	136			inactive
CG18537	1	171	198			inactive
CG42445	1	107	119			inactive
Nsun5 (Nop2/Sun-like domain containing protein 5)	1	146	280			inactive
CG31871	1	214	167			inactive
CG31871	2	208	165			inactive
Cpr47Eg (Cuticular protein 47Eg)	1	102	137			inactive
whe (what else)	1	85.6	107			inactive
CG12547	1	55.3	146			inactive
Nubp1 (NUBP iron-sulfur cluster assembly factor 1)	1	135	89.5			inactive
tplus3a + tplus3b	1	128	10639			inactive
CG5793	1	108	148			inactive
Pph13 (PvuII-PstI homology 13)	1	121	277			inactive
Pph13 (PvuII-PstI homology 13)	2	143	109			inactive
CG11808	1	107	104			inactive
p130CAS	1	138	124			inactive
mars	1	158	167	104	145	inactive
CG5382	1	148	269			inactive
Gr39a (Gustatory receptor 39a)	1	89.2	3837			inactive
Gr39a (Gustatory receptor 39a)	2	116	5445			inactive
Rubicon	1	195	118			inactive
Zdhhc8 (Zinc finger DHHC-type containing 8)	1	91.3	95.4			inactive
Zdhhc8 (Zinc finger DHHC-type containing 8)	2	54.4	91.6			active
